No constants are given. Whether binding was seen depends on the method and setting. Binding seen in cells or lysates may run through a third protein. Some results given as binding are weak or reduced against the parent protein; the word gives no strength.

Data on one molecule can be found in PMC11102450.

The assay deals with p53 (human (endogenous in A549 and HCC827)) (UniProt P04637). As to the kind of experiment: co-IP; endogenous proteins in A549 and HCC827 cell lysates (RIPA buffer with protease inhibitor cocktail); incubated with anti-MYBBP1A or anti-p53 antibody or control IgG at 4 °C overnight, Protein A/G PLUS-Agarose beads 4 h, washed 3 times with RIPA buffer, western blot; GAS5-knockdown cells compared with control cells. (In general: In western blotting, separated proteins are transferred to a membrane and probed.)

B1: MYBBP1A (protein, UniProt Q9BQG0 1-1328)
chain: MESRDPAQPMSPGEATQSGARPADRYGLLKHSREFLDFFWDIAKPEQETRLAATEKLLEYLRGRPKGSEMKYALKRLITGLGVGRETARPCYSLALAQLLQSFEDLPLCSILQQIQEKYDLHQVKKAMLRPALFANLFGVLALFQSGRLVKDQEALMKSVKLLQALAQYQNHLQEQPRKALVDILSEVSKATLQEILPEVLKADLNIILSSPEQLELFLLAQQKVPSKLKKLVGSVNLFSDENVPRLVNVLKMAASSVKKDRKLPAIALDLLRLALKEDKFPRFWKEVVEQGLLKMQFWPASYLCFRLLGAALPLLTKEQLHLVMQGDVIRHYGEHVCTAKLPKQFKFAPEMDDYVGTFLEGCQDDPERQLAVLVAFSSVTNQGLPVTPTFWRVVRFLSPPALQGYVAWLRAMFLQPDLDSLVDFSTNNQKKAQDSSLHMPERAVFRLRKWIIFRLVSIVDSLHLEMEEALTEQVARFCLFHSFFVTKKPTSQIPETKHPFSFPLENQAREAVSSAFFSLLQTLSTQFKQAPGQTQGGQPWTYHLVQFADLLLNHSHNVTTVTPFTAQQRQAWDRMLQTLKELEAHSAEARAAAFQHLLLLVGIHLLKSPAESCDLLGDIQTCIRKSLGEKPRRSRTKTIDPQEPPWVEVLVEILLALLAQPSHLMRQVARSVFGHICSHLTPRALQLILDVLNPETSEDENDRVVVTDDSDERRLKGAEDKSEEGEDNRSSESEEESEGEESEEEERDGDVDQGFREQLMTVLQAGKALGGEDSENEEELGDEAMMALDQSLASLFAEQKLRIQARRDEKNKLQKEKALRRDFQIRVLDLVEVLVTKQPENALVLELLEPLLSIIRRSLRSSSSKQEQDLLHKTARIFTHHLCRARRYCHDLGERAGALHAQVERLVQQAGRQPDSPTALYHFNASLYLLRVLKGNTAEGCVHETQEKQKAGTDPSHMPTGPQAASCLDLNLVTRVYSTALSSFLTKRNSPLTVPMFLSLFSRHPVLCQSLLPILVQHITGPVRPRHQACLLLQKTLSMREVRSCFEDPEWKQLMGQVLAKVTENLRVLGEAQTKAQHQQALSSLELLNVLFRTCKHEKLTLDLTVLLGVLQGQQQSLQQGAHSTGSSRLHDLYWQAMKTLGVQRPKLEKKDAKEIPSATQSPISKKRKKKGFLPETKKRKKRKSEDGTPAEDGTPAATGGSQPPSMGRKKRNRTKAKVPAQANGTPTTKSPAPGAPTRSPSTPAKSPKLQKKNQKPSQVNGAPGSPTEPAGQKQHQKALPKKGVLGKSPLSALARKKARLSLVIRSPSLLQSGAKKKAQVRKAGKP
For B1, the binding result is on record as “binds”.
